PubChem BioAssay AID652243, Drosophila RNAi Screening Center – 2013
The screen tested about 24,000 reagents; shown is a random part of those that have a named target and a result. In the full data, 246 (1%) are marked active. 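Plates not normalised; calls are printed but the firefly/Renilla ratio behind them is not deposited; fold cut for lowering reported inconsistently.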 Raw values are not corrected between plates. Names joined by + are all predicted targets of the reagent. Reagent sequences are not shown. Not given: the amount of reagent.

Purpose: 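Fly regulators of androgen-dependent reporter output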 (primary screen)
Cells: Drosophila S2R+ cells
Reagent: long dsRNA against Drosophila genes
Timing: 72 h (48 h, then 24 h hormone)
Conditions: synthetic androgen R1881 at 10 nM for 24 h
Measured: 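Firefly light from an androgen-responsive reporter and Renilla control light per well, raw and unnormalised, for each of two replicates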
Scale: firefly reporter light: higher = more light from androgen-responsive reporter; Renilla control light: higher = more constitutive control signal (cell number, transfection)
Active means: 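Hit when the log firefly-to-Renilla ratio dropped or increased by a fixed fold versus the mean of GFP or LacZ controls across duplicate plates; lowering cut given as 1.5 and as 3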
Calls: active = hit: reporter lowered or raised; inactive = no hit

Target gene	DRSC id	firefly reporter light, replicate 1	firefly reporter light, replicate 2	Renilla control light, replicate 1	Renilla control light, replicate 2	Call
hfw (GeneID 31120)	DRSC18506	3.06e5	2.47e5	3.58e6	3.24e6	inactive
hfw (GeneID 31120)	DRSC25958	7.99e5	6.96e5	1.18e6	1.09e6	inactive
CG15293 (GeneID 34828)	DRSC01919	2.72e5	2.05e5	2.75e6	1.41e6	inactive
CG30099 (GeneID 36818)	DRSC07039	72768	1.19e5	1.82e6	1.82e6	inactive
CG30099 (GeneID 36818)	DRSC26526	2.65e5	2.55e5	5.40e5	5.60e5	inactive
Pdrg1 (GeneID 36034)	DRSC28485	5.59e5	6.41e5	6.62e5	1.20e6	inactive
Cyp318a1 (GeneID 32172)	DRSC19784	4.37e5	3.90e5	3.24e6	3.11e6	inactive
Mmp1 (GeneID 37949)	DRSC04493	1.29e5	1.34e5	1.27e6	9.85e5	inactive
CG15649 (GeneID 37371)	DRSC04240	3.29e5	3.12e5	2.12e6	2.48e6	inactive
CG15649 (GeneID 37371)	DRSC29626	5.14e5	4.57e5	1.56e6	1.56e6	inactive
ssh (GeneID 42986)	DRSC16730	1.15e5	1.68e5	2.24e6	1.81e6	inactive
ssh (GeneID 42986)	DRSC28782	4.38e5	3.72e5	9.08e5	7.58e5	inactive
ssh (GeneID 42986)	DRSC36804					inactive
ssh (GeneID 42986)	DRSC36805					inactive
CG8435 (GeneID 36789)	DRSC07179	2.17e5	1.09e5	5.92e5	3.24e5	inactive
CG8435 (GeneID 36789)	DRSC29713	4.91e5	2.86e5	1.50e6	1.47e6	inactive
Prp19 (GeneID 37123)	DRSC07434	74689	72210	1.31e6	1.85e6	inactive
Prp19 (GeneID 37123)	DRSC23905	3.31e5	2.24e5	5.34e5	4.44e5	inactive
CG14304 (GeneID 42232)	DRSC25016	6.63e5	1.08e6	6.86e5	7.71e5	inactive
CG3216 (GeneID 37376)	DRSC04347	2.78e5	4.57e5	1.49e6	2.11e6	inactive
CG3216 (GeneID 37376)	DRSC24945	8.15e5	8.41e5	7.30e5	6.89e5	inactive
CG3216 (GeneID 37376)	DRSC39319					inactive
CG34160 (GeneID 5740175)	DRSC38919	8.38e5	9.35e5	1.92e6	2.02e6	inactive
Ran-like (GeneID 39666)	DRSC10918	8.23e5	6.21e5	1.40e6	1.41e6	inactive
CAH4 (GeneID 42965)	DRSC22433	4.20e5	7.00e5	1.13e6	1.86e6	inactive
CG42374 + Mettl5	DRSC11085	20441	40915	1.89e5	2.16e5	inactive
SelR (GeneID 41309)	DRSC16071	1.78e5	2.07e5	2.40e6	3.03e6	inactive
Elp1 (GeneID 41399)	DRSC14250	46999	40668	3.24e5	4.08e5	inactive
rad (retired record) (GeneID 32251)	DRSC19687	4.94e5	3.76e5	3.13e6	2.86e6	inactive
rad (retired record) (GeneID 32251)	DRSC22865	5.89e5	9.20e5	1.09e6	2.17e6	inactive
rad (retired record) (GeneID 32251)	DRSC23355	1.14e6	1.13e6	1.17e6	1.13e6	inactive
CG4537 (GeneID 34306)	DRSC02756	2.17e5	2.79e5	1.80e6	1.79e6	inactive
CG13625 (GeneID 42931)	DRSC14627	1.05e5	1.16e5	7.80e5	7.42e5	inactive
CkIIbeta2 (GeneID 37300)	DRSC07361	81271	90424	1.10e6	1.22e6	inactive
CkIIbeta2 (GeneID 37300)	DRSC36774					inactive
Lis-1 (GeneID 36791)	DRSC07459	81677	1.26e5	2.45e6	2.45e6	inactive
lambdaTry (GeneID 36214)	DRSC06137	2.98e5	1.80e5	1.85e6	1.34e6	inactive
Vps13 (GeneID 35693)	DRSC06817	2.99e5	2.93e5	1.37e6	1.13e6	inactive
Vps13 (GeneID 35693)	DRSC29275	6.63e5	5.68e5	1.15e6	1.12e6	inactive
az2 (GeneID 35682)	DRSC07580	7.66e5	7.71e5	2.19e6	1.96e6	inactive
CG10418 (GeneID 39408)	DRSC09720	2.37e5	2.35e5	2.92e6	2.87e6	inactive
MED17 (GeneID 42175)	DRSC16889	61555	40388	6.32e5	5.54e5	inactive
sau (GeneID 33402)	DRSC00694	1.31e6	8.81e5	5.20e6	2.59e6	inactive
SoxN (GeneID 44275)	DRSC03440	2.08e5	1.78e5	2.43e6	2.31e6	active
SoxN (GeneID 44275)	DRSC24984	3.98e5	3.67e5	7.72e5	5.65e5	inactive
Cpr47Ef (GeneID 36194)	DRSC06336	1.76e5	1.64e5	1.72e6	1.87e6	inactive
Cpr47Ef (GeneID 36194)	DRSC22450	4.40e5	6.86e5	9.61e5	1.88e6	inactive
Cpr47Ef (GeneID 36194)	DRSC25090	7.85e5	5.58e5	6.45e5	6.07e5	inactive
Cpr47Ef (GeneID 36194)	DRSC25665	7.82e5	9.17e5	9.77e5	1.29e6	inactive
CG40801 (retired record) (GeneID 5740548)	DRSC38667	5.71e5	5.43e5	1.36e6	1.67e6	inactive
CG12659 (GeneID 50403)	DRSC17862	3.61e5	3.90e5	2.08e6	1.84e6	inactive
CG12659 (GeneID 50403)	DRSC27326	3.05e5	2.60e5	5.74e5	3.36e5	inactive
CG10444 (GeneID 37294)	DRSC05990	1.15e6	1.03e6	1.46e6	1.27e6	inactive
CG42827 (GeneID 42763)	DRSC16116	2.34e5	2.74e5	2.25e6	2.60e6	inactive
CG9135 (GeneID 33850)	DRSC03144	8.61e5	1.17e6	2.27e6	2.09e6	inactive
CG14931 (GeneID 34588)	DRSC02413	2.98e5	2.34e5	1.73e6	1.12e6	inactive
CG6041 (GeneID 31527)	DRSC18396	3.77e5	2.19e5	2.67e6	1.91e6	inactive
CG6041 (GeneID 31527)	DRSC24234	6.91e5	6.23e5	9.27e5	9.17e5	inactive

Records listed so far with an active call, once more:
Target gene	DRSC id	firefly reporter light, replicate 1	firefly reporter light, replicate 2	Renilla control light, replicate 1	Renilla control light, replicate 2	Call
SoxN (GeneID 44275)	DRSC03440	2.08e5	1.78e5	2.43e6	2.31e6	active
